Measured values published in US20170049847A1.
Results are given in words; binding and its absence hold for the method and conditions named. Some results given as binding are weak or reduced against the parent protein; the word gives no strength. One block for each binder: values may come before it.

The chains behind the UniProt entries cited, without tags or fusion partners. Residues count along the entry.
UniProt P08581, residues 25-932: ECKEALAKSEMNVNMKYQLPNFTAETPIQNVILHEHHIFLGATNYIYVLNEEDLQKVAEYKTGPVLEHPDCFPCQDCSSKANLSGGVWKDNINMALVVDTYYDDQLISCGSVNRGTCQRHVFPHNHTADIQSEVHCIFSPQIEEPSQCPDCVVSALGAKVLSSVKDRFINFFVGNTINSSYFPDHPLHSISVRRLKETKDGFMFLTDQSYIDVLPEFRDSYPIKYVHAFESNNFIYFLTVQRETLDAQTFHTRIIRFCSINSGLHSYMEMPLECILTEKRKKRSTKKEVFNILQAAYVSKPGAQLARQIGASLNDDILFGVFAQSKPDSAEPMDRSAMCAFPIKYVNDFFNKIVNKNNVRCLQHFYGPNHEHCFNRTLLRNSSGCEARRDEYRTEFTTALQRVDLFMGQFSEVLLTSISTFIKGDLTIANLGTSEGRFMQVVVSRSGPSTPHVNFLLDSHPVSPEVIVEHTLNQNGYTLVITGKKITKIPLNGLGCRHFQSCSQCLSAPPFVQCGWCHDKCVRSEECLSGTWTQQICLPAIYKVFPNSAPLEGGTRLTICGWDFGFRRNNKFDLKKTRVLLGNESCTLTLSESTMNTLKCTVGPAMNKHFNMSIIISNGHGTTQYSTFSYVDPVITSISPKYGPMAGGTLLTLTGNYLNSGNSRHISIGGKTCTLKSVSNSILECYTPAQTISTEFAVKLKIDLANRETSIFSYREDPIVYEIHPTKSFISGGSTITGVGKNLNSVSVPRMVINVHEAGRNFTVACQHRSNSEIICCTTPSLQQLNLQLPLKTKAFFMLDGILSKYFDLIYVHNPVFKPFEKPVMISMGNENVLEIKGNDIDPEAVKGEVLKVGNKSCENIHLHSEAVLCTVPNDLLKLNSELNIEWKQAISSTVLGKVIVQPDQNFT

Experiments:
[1] = biological target: HGFR (R&D Systems) (UniProt P08581); test: ELISA, peptide coated on plate, soluble HGFR added, anti-human IgG-HRP, OD 450 nm
[2] = biological target: HGFR (R&D Systems) (UniProt P08581); test: ELISA of Example 2-1, told again in Example 2-2
[3] = biological target: T1, BMPR-IB (R&D Systems) (UniProt O00238); test: ELISA of Example 2-3, told again in Example 2-4
T1 sequence (looked up): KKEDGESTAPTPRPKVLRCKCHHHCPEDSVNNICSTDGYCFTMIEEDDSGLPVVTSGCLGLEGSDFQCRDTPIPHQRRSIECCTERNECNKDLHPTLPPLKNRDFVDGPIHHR

[4] = biological target: T1, BMPR-IB (R&D Systems); test: ELISA, peptide coated on plate, soluble BMPR-IB added, anti-human IgG-HRP, OD 450 nm

binding [1]: binds
binding [2]: binds
B1: peptide of SEQ ID NO: 1 (peptide)
peptide: ACRSAIGRPC

binding [3]: binds
binding [4]: binds
B2: peptide of SEQ ID NO: 2 (peptide)
peptide: ACFTRTSHAC

binding [1]: binds
binding [2]: binds
B3: peptide of SEQ ID NO: 3 (peptide)
peptide: ACDGRTQALC
